Two molecules from the supplement of paper PMC10032668 can be followed below.

Protein sequences, listed by entry. Tags and fused reporters are not part of them.
EXOSC4, Q9NPD3, UniProt Q9NPD3, whole entry: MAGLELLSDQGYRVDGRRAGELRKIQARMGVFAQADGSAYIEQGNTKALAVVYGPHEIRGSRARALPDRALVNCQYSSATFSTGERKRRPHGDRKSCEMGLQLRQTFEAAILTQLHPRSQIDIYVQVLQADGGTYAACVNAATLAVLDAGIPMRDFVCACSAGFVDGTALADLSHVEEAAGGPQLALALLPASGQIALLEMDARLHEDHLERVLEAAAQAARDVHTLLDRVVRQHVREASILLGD
HIST1H1E, P10412, UniProt P10412, whole entry: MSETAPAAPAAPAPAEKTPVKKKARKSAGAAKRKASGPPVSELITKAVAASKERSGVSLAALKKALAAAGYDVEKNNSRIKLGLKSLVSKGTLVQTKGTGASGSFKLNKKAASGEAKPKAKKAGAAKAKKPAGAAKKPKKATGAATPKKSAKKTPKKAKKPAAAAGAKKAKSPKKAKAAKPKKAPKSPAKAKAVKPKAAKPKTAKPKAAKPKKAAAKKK
VAPB, O95292, UniProt O95292, whole entry: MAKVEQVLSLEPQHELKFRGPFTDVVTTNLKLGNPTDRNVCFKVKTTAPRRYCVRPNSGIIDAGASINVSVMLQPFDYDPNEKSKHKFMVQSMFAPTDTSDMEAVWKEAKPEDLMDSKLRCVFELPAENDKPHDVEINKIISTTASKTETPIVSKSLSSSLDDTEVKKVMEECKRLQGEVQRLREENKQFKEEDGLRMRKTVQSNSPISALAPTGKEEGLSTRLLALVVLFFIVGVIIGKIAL
ANXA11, P50995, UniProt P50995, whole entry: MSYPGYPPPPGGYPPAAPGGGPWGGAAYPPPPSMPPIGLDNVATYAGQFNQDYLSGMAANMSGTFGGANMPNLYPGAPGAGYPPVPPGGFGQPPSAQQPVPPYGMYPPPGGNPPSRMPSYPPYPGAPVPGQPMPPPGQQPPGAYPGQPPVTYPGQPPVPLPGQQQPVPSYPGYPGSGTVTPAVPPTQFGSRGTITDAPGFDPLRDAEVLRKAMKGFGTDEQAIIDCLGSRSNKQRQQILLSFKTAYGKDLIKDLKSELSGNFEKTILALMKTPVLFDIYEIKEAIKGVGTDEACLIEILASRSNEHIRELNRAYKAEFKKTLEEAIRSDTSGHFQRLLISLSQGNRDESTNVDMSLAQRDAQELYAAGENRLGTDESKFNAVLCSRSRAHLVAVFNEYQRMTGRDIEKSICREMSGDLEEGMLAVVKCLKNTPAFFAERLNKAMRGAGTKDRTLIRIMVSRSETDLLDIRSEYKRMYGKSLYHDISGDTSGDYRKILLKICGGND
FLNA, P21333, UniProt P21333, whole entry: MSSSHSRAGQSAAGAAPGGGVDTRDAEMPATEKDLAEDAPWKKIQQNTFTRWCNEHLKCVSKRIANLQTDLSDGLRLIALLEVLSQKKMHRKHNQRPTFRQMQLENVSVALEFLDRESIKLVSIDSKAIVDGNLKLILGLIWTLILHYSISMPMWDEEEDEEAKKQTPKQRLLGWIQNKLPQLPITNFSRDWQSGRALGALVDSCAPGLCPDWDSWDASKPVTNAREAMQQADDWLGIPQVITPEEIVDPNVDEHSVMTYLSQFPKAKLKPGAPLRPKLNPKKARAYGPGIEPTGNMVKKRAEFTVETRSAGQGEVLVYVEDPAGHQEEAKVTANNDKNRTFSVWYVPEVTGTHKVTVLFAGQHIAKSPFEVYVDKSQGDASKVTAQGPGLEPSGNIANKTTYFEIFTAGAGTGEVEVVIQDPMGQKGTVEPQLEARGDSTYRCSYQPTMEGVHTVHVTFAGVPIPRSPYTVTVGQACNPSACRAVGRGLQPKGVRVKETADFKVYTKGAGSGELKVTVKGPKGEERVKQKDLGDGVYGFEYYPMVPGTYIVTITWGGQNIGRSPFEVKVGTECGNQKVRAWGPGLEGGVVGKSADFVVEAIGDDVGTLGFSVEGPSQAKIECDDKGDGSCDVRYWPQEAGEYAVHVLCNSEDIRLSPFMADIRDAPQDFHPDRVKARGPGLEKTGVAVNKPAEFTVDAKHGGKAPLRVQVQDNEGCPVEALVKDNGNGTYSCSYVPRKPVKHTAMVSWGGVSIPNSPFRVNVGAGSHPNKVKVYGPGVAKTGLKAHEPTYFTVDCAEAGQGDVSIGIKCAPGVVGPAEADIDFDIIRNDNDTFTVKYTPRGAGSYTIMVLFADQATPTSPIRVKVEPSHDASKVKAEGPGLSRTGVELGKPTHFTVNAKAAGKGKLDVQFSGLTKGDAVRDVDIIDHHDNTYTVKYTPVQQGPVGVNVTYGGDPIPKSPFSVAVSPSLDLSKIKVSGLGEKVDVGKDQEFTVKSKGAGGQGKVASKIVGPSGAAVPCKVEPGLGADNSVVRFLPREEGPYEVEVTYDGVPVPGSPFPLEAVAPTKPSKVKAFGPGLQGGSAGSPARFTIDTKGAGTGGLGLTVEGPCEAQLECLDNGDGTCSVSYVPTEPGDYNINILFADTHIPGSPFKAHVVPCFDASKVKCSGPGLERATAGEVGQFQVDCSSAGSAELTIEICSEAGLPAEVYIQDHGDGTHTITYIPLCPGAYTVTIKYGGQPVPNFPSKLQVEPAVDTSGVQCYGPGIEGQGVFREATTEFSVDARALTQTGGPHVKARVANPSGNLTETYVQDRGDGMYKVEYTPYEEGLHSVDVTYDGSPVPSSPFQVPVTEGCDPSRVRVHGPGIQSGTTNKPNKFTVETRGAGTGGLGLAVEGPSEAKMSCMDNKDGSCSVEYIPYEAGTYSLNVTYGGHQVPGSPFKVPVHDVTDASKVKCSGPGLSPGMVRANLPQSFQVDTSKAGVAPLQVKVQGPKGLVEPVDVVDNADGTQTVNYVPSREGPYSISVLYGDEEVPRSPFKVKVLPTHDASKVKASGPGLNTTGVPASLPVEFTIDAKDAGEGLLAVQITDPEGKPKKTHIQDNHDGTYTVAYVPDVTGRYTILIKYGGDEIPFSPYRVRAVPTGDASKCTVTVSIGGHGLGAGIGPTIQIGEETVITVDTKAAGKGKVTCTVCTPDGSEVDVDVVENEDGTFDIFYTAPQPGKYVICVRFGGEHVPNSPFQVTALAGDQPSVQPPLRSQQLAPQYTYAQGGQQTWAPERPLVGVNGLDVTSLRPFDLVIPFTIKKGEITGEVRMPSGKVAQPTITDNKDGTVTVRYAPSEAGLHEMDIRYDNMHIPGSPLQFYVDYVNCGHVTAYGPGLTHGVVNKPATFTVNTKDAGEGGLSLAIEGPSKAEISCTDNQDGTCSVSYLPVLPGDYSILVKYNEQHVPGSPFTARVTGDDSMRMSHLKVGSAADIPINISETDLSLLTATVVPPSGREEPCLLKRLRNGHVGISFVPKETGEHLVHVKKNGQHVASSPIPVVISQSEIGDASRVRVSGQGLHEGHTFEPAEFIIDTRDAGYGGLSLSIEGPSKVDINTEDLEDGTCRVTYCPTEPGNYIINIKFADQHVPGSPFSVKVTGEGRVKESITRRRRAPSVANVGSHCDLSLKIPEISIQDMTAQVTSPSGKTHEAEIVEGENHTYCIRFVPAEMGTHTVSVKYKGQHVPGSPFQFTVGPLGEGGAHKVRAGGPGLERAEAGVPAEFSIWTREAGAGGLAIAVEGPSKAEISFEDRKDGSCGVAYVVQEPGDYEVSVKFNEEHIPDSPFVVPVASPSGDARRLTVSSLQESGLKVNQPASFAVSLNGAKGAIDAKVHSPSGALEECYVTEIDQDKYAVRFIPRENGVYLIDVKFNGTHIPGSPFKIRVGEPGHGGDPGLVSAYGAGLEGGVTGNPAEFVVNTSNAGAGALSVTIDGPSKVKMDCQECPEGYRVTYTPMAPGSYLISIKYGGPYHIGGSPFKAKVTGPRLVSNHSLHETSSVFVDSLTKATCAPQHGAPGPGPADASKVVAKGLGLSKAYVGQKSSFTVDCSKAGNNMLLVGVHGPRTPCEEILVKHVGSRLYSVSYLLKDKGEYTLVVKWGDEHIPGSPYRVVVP
NUP153, P49790, UniProt P49790, whole entry: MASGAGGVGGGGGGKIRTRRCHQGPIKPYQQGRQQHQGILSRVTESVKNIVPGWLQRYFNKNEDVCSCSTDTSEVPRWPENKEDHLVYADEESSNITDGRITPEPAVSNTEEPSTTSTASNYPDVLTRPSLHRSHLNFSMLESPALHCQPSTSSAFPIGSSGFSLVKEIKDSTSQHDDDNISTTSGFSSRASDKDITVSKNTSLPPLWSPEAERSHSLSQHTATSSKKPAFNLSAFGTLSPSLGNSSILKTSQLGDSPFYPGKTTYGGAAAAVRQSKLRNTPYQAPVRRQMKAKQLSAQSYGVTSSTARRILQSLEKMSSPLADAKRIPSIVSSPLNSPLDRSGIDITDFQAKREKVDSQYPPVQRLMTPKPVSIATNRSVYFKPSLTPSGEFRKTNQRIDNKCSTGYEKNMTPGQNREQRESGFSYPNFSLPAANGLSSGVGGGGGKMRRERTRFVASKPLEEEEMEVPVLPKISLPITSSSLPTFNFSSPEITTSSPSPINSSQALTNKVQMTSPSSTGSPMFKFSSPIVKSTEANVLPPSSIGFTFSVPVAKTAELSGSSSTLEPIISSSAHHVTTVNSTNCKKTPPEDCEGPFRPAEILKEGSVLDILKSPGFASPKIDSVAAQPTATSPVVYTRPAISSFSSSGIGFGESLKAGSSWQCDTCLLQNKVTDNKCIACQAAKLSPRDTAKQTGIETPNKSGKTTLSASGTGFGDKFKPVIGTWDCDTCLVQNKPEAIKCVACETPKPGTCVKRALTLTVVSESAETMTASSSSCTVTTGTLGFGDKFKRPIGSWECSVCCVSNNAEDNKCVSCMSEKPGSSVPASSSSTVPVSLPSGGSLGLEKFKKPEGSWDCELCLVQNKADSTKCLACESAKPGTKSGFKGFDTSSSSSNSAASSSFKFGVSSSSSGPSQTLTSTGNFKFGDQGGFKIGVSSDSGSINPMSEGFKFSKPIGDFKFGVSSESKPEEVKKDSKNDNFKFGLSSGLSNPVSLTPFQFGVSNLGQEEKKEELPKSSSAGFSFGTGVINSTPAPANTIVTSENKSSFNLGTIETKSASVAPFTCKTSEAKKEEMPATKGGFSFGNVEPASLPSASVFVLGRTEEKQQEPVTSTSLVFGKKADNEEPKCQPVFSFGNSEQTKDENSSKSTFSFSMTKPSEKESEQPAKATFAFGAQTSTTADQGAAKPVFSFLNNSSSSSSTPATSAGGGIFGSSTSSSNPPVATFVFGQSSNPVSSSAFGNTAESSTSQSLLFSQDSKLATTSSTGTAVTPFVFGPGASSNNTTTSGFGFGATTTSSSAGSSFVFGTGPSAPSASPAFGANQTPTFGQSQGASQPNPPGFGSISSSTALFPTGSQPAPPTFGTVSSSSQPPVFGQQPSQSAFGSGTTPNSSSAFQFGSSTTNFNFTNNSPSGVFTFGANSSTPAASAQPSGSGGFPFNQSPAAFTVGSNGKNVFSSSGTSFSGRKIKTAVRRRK
TUBB6, Q9BUF5, UniProt Q9BUF5, whole entry: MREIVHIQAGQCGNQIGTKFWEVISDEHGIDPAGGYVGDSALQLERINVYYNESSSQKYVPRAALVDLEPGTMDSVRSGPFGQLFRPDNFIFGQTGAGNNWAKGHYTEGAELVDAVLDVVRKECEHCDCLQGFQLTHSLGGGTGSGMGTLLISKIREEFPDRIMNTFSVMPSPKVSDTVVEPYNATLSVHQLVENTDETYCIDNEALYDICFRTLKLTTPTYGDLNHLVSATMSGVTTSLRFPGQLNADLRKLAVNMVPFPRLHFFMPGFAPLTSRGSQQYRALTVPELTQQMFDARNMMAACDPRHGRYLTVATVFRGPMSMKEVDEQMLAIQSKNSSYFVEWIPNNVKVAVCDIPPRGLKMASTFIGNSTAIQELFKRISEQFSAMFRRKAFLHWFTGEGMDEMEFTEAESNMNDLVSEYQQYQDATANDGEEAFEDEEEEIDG

The list shows a part of the results. Only hits are listed; about a third recur on repeated control peptides.

What all share (experiment): PRISMA enrichment of interactor (LFQ) in peptide spot vs all other peptide spots (log2 fold change); higher = stronger / more specific binding of the interactor to the peptide
Test [1] addresses AFF3, P51826. How it is done:
(§1)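 PRISMA: 15-aa overlapping tiles (offset 8 aa) of 60 microproteins, plus SOS1/GLUT1 control peptides, were spot-synthesized on cellulose membranes in triplicate. Membranes were incubated with benzonase-treated HEK293T lysate, and bound proteins were identified by LC-MS/MS with LFQ. Enrichment is the log2 fold change of each protein in one spot versus all other spots. Only interactors passing the significance cutoff are listed.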

The target of test [2] is ALDH7A1, P49419. How it is done:
as §1

Test [3] concerns the target CAPZA1, P52907. How it is done:
as §1

Test [4] addresses CHAMP1, Q96JM3. How it is done: as §1
For test [5], the target named is CIP2A, Q8TCG1. How it is done: as §1
Test [6] has as its target ECT2, Q9H8V3. How it is done: as §1
For test [7], the target named is EXOSC4, Q9NPD3. How it is done:
as §1

Test [8] concerns the target GABARAPL2, P60520. How it is done: as §1
Test [9] concerns the target GTPBP4, Q9BZE4. How it is done: as §1
For test [10], the target named is HIST1H1E, P10412. How it is done:
as §1

The target of test [11] is KIFC1, Q9BW19. How it is done:
as §1

In test [12] the target is MED12, Q93074. How it is done: as §1
Test [13] deals with MOV10, Q9HCE1. How it is done: as §1
The target of test [14] is PSAT1, Q9Y617. How it is done:
as §1

Test [15] has as its target RALGAPA1, Q6GYQ0. How it is done:
as §1

For test [16], the target named is REXO4, Q9GZR2. How it is done: as §1
The target of test [17] is SCRIB. How it is done: as §1
Test [18] deals with VAPB, O95292. How it is done:
as §1

For test [19], the target named is ZNF622, Q969S3. How it is done:
as §1

Test [20] has as its target AFG3L2, Q9Y4W6. How it is done:
as §1

For test [21], the target named is AKAP1, Q92667. How it is done:
as §1

Test [22] concerns the target ANXA11, P50995. How it is done:
as §1

Test [23] concerns the target CLINT1, Q14677. How it is done: as §1
The target in test [24] is EEF1D, P29692. How it is done: as §1
The target of test [25] is EIF2B2, P49770. How it is done: as §1
In test [26] the target is FLNA, P21333. How it is done:
as §1

Test [27] deals with MON2, Q7Z3U7. How it is done:
as §1

Test [28] addresses MRPS22, P82650. How it is done:
as §1

Test [29] has as its target MRPS28, Q9Y2Q9. How it is done:
as §1

The target in test [30] is NAP1L1, P55209. How it is done:
as §1

Test [31] addresses NUP153, P49790. How it is done: as §1
Test [32] addresses PDAP1, Q13442. How it is done:
as §1

For test [33], the target named is PRKCSH, P14314. How it is done: as §1
The target in test [34] is PYCR3, Q53H96. How it is done:
as §1

Test [35] addresses RBM8A, Q9Y5S9. How it is done: as §1
In test [36] the target is SNRNP40, Q96DI7. How it is done: as §1
The target of test [37] is TBCD, Q9BTW9. How it is done:
as §1

Test [38] deals with TUBB6, Q9BUF5. How it is done: as §1

RATAAPLRLGGASRR [RNF10]: the “PRISMA enrichment of interactor (log2)” value in test [1] was 4.28; in test [2] it was 7.12; in test [3] it was 4.73; in [4] it was 5.1; in test [5] it was 8.13; in [6] it was 3.77. The “PRISMA enrichment of interactor (log2)” value in test [7] was determined as 4.69; in [8], 5.31; in [9], 4.98; in test [10], 5.45; in test [11] it was 5.52; in [12], 3.92. Also, the “PRISMA enrichment of interactor (log2)” value in [13] came to 4.75; in [14], 4.13; in test [15], 4.92; in test [16] it was 8.12; in test [17], 4.4; in test [18], 7.24. In addition, the “PRISMA enrichment of interactor (log2)” value in test [19] is 4.99.

Turning to AGLEAWRHPSGPART [TUG1], the “PRISMA enrichment of interactor (log2)” value in test [20] worked out at 6; in test [21], 5.28; in [22], 3.91; in [23], 4.65; in test [24], 4.4; in test [25] it was 6.47. In addition, the “PRISMA enrichment of interactor (log2)” value amounted to 6.22 in test [26]; 5.46 in test [27]; 4.96 in test [28]; 6.14 in test [29]; 6.08 in [30]; 5.97 in test [31]. In addition, the “PRISMA enrichment of interactor (log2)” value in test [32] stood at 4.87; in test [33], 4.94; in test [34], 5.65; in test [35], 5.41; in test [36], 5.63; in test [37] it was 6.03. Further, the “PRISMA enrichment of interactor (log2)” value in [38] was 5.24.
